The target in this assay is MDM2 in RKO cells (human (endogenous in RKO)) (UniProt Q00987). Kind of assay: co-IP; RKO cells with Flag-C2CD4A; co-immunoprecipitation with MDM2 (Additional file 5: Fig. S2C); antibodies not told in the text shown.

By UniProt entry, the sequences of proteins in these tests, tags left out.
UniProt Q00987: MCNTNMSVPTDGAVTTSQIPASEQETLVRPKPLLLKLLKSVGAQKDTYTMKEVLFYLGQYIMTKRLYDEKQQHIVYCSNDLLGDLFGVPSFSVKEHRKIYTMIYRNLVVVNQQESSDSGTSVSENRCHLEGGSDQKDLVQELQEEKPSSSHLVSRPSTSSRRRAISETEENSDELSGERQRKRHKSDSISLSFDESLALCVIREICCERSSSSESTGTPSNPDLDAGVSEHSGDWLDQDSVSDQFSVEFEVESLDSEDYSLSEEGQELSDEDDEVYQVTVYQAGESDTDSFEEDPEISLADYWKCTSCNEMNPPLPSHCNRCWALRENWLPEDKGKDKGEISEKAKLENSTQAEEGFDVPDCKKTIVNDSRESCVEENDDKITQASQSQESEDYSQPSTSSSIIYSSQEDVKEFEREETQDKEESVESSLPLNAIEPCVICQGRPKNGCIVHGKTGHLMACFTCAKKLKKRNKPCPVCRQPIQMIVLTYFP

No constants are given. Whether binding was seen depends on the method and setting. In cells and extracts the contact can be indirect. Some results given as binding are weak or reduced against the parent protein; the word gives no strength. Tags and fused reporters may be left off the sequences shown.

B1: Flag-C2CD4A (C2 calcium dependent domain containing 4A), expressed in RKO cells (protein, UniProt Q8NCU7 1-369)
chain: MWCLERLRLGPECLRRSGDWLLPGRARGAKSRTTAACANVLTPDRIPEFCIPPRLMPRLALAALRNSWVEEAGMDEGAGRTDWDPRSQAALSLPHLPRVRTAYGFCALLESPHTRRKESLLLGGPPAPRPRAHTYGGGGGPDALLGTLRVPRAPGPATPAAPGCPRPPQDALARRPRGCRLLRVPDGLLSRALRAGRSRRLTRVRSVSSGNEDKERRAGSQSPARAPSTSPPSSRVPFPERLEAEGTVALGRAGDALRLAAEYCPGTGRLRLRLLRAESPAGGAPGPRAVSCRLSLVLRPPGTALRQCSTVVGRSRKASFDQDFCFDGLSEDEVRRLAVRVKARDEGRGRERGRLLGQGELSLGALLLL
In the case of B1, the binding entry is reported as “binds”.

The values are drawn from PMC8520208.
